Measurements reported in PubChem BioAssay AID686943 (Drosophila RNAi Screening Center, 2013).

Test: 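Fly genes whose loss alters ERK activation after insulin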 (primary screen)
Cells: Drosophila S2R+ haemocyte-like cells expressing YFP-tagged ERK (Rolled)
Knock-down reagent: long dsRNA against Drosophila genes
Challenge: insulin stimulation versus unstimulated cells; dose and duration not given
Read-out: 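Per-plate z-scores of phospho-ERK immunostaining normalised to YFP-tagged ERK, measured with and without insulin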
Scale: replicate 1, z-score of dpERK with insulin and replicate 2, z-score of dpERK with insulin: higher = more active ERK per ERK-YFP after insulin
The screen tested about 23,000 reagents; below is an unselected part of those that have a named target and a result. 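Extra replicates exist only for a retested subset of genes; insulin dose and duration not given; both raised and lowered dpERK matter.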 Further read-outs or replicates are left out here. The record does not give: the amount of reagent, the time to read-out.

With knock-down of CG14708 [DRSC14930], the record shows replicate 1, z-score of dpERK with insulin -0.5; replicate 2, z-score of dpERK with insulin -0.01.
Against dod (dodo) [DRSC20577] the deposit lists replicate 1, z-score of dpERK with insulin 0.71; replicate 2, z-score of dpERK with insulin 0.18.
CG42675 [DRSC12157] showed replicate 1, z-score of dpERK with insulin -0.57; replicate 2, z-score of dpERK with insulin -0.03.
Depletion of CG42675 [DRSC21868] gave: replicate 1, z-score of dpERK with insulin -0.75; replicate 2, z-score of dpERK with insulin -0.72.
After knock-down of Sema1a (Semaphorin 1a) [DRSC03433], the screen gave replicate 1, z-score of dpERK with insulin 0.08; replicate 2, z-score of dpERK with insulin -0.4.
PNPase (Polynucleotide phosphorylase) [DRSC14304] scored replicate 1, z-score of dpERK with insulin 0.05; replicate 2, z-score of dpERK with insulin 0.14.
Fbp2 (Fat body protein 2) [DRSC03327] showed replicate 1, z-score of dpERK with insulin -0.69; replicate 2, z-score of dpERK with insulin 0.23.
OXA1L (OXA1L mitochondrial inner membrane protein) [DRSC09672] gave replicate 1, z-score of dpERK with insulin 0.01; replicate 2, z-score of dpERK with insulin -0.73.
With knock-down of CG3337 [DRSC15478], the screen gave replicate 1, z-score of dpERK with insulin 0.19; replicate 2, z-score of dpERK with insulin -0.17.
For CG18095 [DRSC01948] the deposit lists replicate 1, z-score of dpERK with insulin -0.34; replicate 2, z-score of dpERK with insulin -0.01.
With knock-down of IntS1 (Integrator 1) [DRSC04343] the results were replicate 1, z-score of dpERK with insulin -2.06; replicate 2, z-score of dpERK with insulin -2.95.
Against Rae1 [DRSC04577], the values are replicate 1, z-score of dpERK with insulin 0.97; replicate 2, z-score of dpERK with insulin 0.33.
